Assay [1] has as its system breast cancer cell line MCF7. In words: MTT cytotoxicity assay, MCF7. It counts as cell-based. The conditions noted are these: Homo sapiens, MCF7, 72 h, read-out: Cytotoxicity IC50 MCF7.
The subject of the next assay is p-PI3K. In words: Phosphorylated PI3K ELISA in MCF7 cells. Format: cell-based, human. Particulars: 4g at its IC50 0.56 μM, compared to untreated MCF7 cells.

For the molecule `CN[C@@H]1C[C@H]2O[C@@](C)([C@@H]1OC)n1c3ccccc3c3c4c(c5c6ccccc6n2c5c31)C(=O)NC4` [Staurosporine, reference compound], the IC50 in assay [1] came to 8.04 ± 0.48 µM. Moreover, the “inhibition of PI3K phosphorylation” value in the assay on p-PI3K is listed as 34.6%.

Source of the values: paper PMC11420776 (RSC Advances, 2024).
